Reference: PubChem BioAssay AID1508597 (Cure First, 2020)

Assay: 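Genes whose silencing sensitises or protects ovarian cancer cells against rucaparib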 (primary screen)
Cells: human ovarian carcinoma lines grown from tumours: OCI-P5x (papillary serous) and OCI-C5x (clear cell)
Knock-down reagent: siRNA pool against human genes, 1.25 pmol siRNA per well
Duration: 72 h or 96 h, depending on the cell culture
Conditions: rucaparib 20 µM (about IC30) or vehicle, present until read-out
Rucaparib or vehicle: Rucaparib
Cell line: OCI-C5x (clear cell)
Detection: 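Luminescent ATP-based viability assay read 72 or 96 h after transfection, depending on culture, given as normalised percent viability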
Reading the numbers: viability, normalised: higher = more viable cells remaining
Hit rule: 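a well counts as a hit if its normalised viability is under 80 percent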
Calls: active = viability under 80%; inactive = viability 80% or more
This is a random part of the about 2,100 reagents, in one setting of the screen. 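Calls flag viability under 80% in either arm, not effects specific to rucaparib; the reference for percent is not stated.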 A number with no mark means an inactive call. Not given: the 100% reference.

no.	gene	technical replicate	viability, normalised (%)
1	AKT2 (GeneID 208)	1	69.3 (active)
2	AKT2 (GeneID 208)	2	64.7 (active)
3	AKT2 (GeneID 208)	3	62.2 (active)
4	INO80E (GeneID 283899)	1	55.1 (active)
5	INO80E (GeneID 283899)	2	37.9 (active)
6	INO80E (GeneID 283899)	3	44.8 (active)
7	UCKL1 (GeneID 54963)	1	57.1 (active)
8	UCKL1 (GeneID 54963)	2	54.5 (active)
9	UCKL1 (GeneID 54963)	3	39.9 (active)
10	TESK2 (GeneID 10420)	1	69.2 (active)
11	TESK2 (GeneID 10420)	2	59.4 (active)
12	TESK2 (GeneID 10420)	3	69.7 (active)
13	PHF14 (GeneID 9678)	1	42.4 (active)
14	PHF14 (GeneID 9678)	2	31.3 (active)
15	PHF14 (GeneID 9678)	3	34.4 (active)
16	CKMT1B (GeneID 1159)	1	39.6 (active)
17	CKMT1B (GeneID 1159)	2	53.5 (active)
18	CKMT1B (GeneID 1159)	3	53.8 (active)
19	PDE3B (GeneID 5140)	1	56.2 (active)
20	PDE3B (GeneID 5140)	2	60.2 (active)
21	PDE3B (GeneID 5140)	3	62.4 (active)
22	PRKN (GeneID 5071)	1	48.6 (active)
23	PRKN (GeneID 5071)	2	52.4 (active)
24	PRKN (GeneID 5071)	3	47.1 (active)

No new results follow: 2 of the entries above.
no.	gene	technical replicate	viability, normalised (%)
22	PRKN (GeneID 5071)	1	48.6 (active)
23	PRKN (GeneID 5071)	2	52.4 (active)
